Source: ChEMBL document CHEMBL3988442, “University of Dundee, Small-Polar-MMV Screening Library” (2021).

Mtb heat-shock: 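Assay on Mycobacterium tuberculosis, filed only as a heat shock assay from Cornell; the read-out is not stated. The concentration is filed as 10 mM, unlikely as a test dose, so the dose is not known. Higher reads as stronger inhibition (inferred: compounds with an IC50 in retests scored well above the rest). About 69,000 compounds were tested under these conditions; 1.4% (about 930) showed 50% or more at least once.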
Mtb growth Cornell: 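Whole-cell assay for inhibitors of Mycobacterium tuberculosis growth, labelled Cornell in the record; the read-out is not stated. The concentration is filed as 10 mM, unlikely as a test dose, so the dose is not known. Higher means stronger inhibition (inferred from two other growth screens of the library). Size under these conditions: about 53,000 compounds, about 900 of them at 50% or above in at least one test.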

The filed quantity is “Percent Effect” (%). The controls that fix the scale are not given in the record; negative values are as filed. The compounds are a random part of those screened. A dash means the value is not listed here; it may have been measured.

| # | structure | Mtb heat-shock | Mtb growth Cornell |
|---|---|---|---|
| 1 | `O=C(O)C(F)(F)F.[H][C@@]12C[C@H](C(=O)Nc3cccnc3)[C@@]([H])(CN(C(=O)NC)C1)O2` | -3.973 | 9.102 |
| 2 | `O=C1N(C2CCCCC2)CCCC12CCN(S(=O)(=O)c1cccnc1)C2` (stereo not shown) | -24 | -44.65 |
| 3 | `Cn1ccnc1CN1CCC2(CC1)CN(CC1CC1)C(=O)CO2` | 11.68 | -11.1 |
| 4 | `COc1c(CNCCNC(=O)c2ccccc2F)c(C)nn1C` | -9.144 | - |
| 5 | `CC(C)CN1C(=O)C2(CCN(Cc3ccoc3)C2)c2ccccc21.O=C(O)C(F)(F)F` (stereo not shown) | -0.9241 | - |
| 6 | `CCOc1ccc(CNCc2cccnc2N(C)C)cc1` | 0.1133 | 24.27 |
| 7 | `Cc1nc(CCNC(=O)C2CC(=O)N(C(C)(C)C)C2)sc1Cl` (stereo not shown) | 5.806 | 2.693 |
| 8 | `Cc1noc(C)c1CNC(=O)Nc1ccc(N2CCOC2=O)cc1` | 11.84 | -58.42 |
| 9 | `O=C(O)C(F)(F)F.[H][C@@]12CCN(Cc3ccoc3)[C@]1([H])CC[C@H](C(=O)Nc1cnccn1)O2` | -36.25 | - |
| 10 | `CCOCc1ncn2c1CN(S(=O)(=O)c1cccc(C)c1)CC2` | -25.64 | 15.43 |
| 11 | `N#Cc1ccc(S(=O)(=O)N2CC(CC(=O)O)c3ccccc32)cc1` (stereo not shown) | -4.804 | 19.47 |
| 12 | `c1ccc2nc(CN3CCCC3c3noc(C4CC4)n3)ccc2c1` (stereo not shown) | 108.9 | - |
| 13 | `COc1ccccc1CC(=O)N1CCC(NCc2cc[nH]c2)CC1` | -5.645 | 8.613 |
| 14 | `[H][C@@]12CCC(=O)N(CCCOC)[C@]1([H])CCN(c1ccnc3ccccc13)C2` | -14.55 | 20.06 |
| 15 | `CC(=O)NC(C)C(=O)N(Cc1ccc(C)c(C)c1)C1CC1` (stereo not shown) | 10.58 | 4.581 |
| 16 | `CO[C@H]1CN(C(=O)OC(C)(C)C)CC1NCc1ccoc1` (stereo partly shown) | -16.98 | 8.905 |
| 17 | `CN(C)C(=O)CNC(=O)c1nc(C2CC2)n(-c2ccccc2Cl)n1` | -1.293 | 3.666 |
| 18 | `CCN(Cc1cc(F)ccc1Cl)C1CCS(=O)(=O)C1` (stereo not shown) | -4.524 | - |
| 19 | `COc1ccccc1-c1nnc([C@H]2CCN(C(=O)C3CC3)C2)o1` | -28.81 | - |
| 20 | `O=C(Cc1cccs1)NS(=O)(=O)c1cccc2cnccc12` | 5.625 | 13.73 |
| 21 | `COc1ccc(CN2CCCC2c2cccc(F)c2)c(OC)c1OC` (stereo not shown) | 12.05 | 26.12 |
| 22 | `O=C(CCCNC(=O)C1CCCO1)Nc1ccc(Cl)cc1` (stereo not shown) | -4.15 | -14.55 |
| 23 | `CCCc1nc(CN2CCOC(Cn3cncn3)C2)cs1` (stereo not shown) | -24.09 | -15.62 |
| 24 | `Cc1nn(CC(C)C)c(N(C)C)c1CNCc1ccnn1C` | -14.17 | -14.58 |
| 25 | `CN(C)c1ncnc2c1CCN(c1cccc(F)c1)CC2` | -3.044 | -23.05 |
| 26 | `O=C(O)C(F)(F)F.O=C(O)C(F)(F)F.[H][C@@]12OCCC[C@]1([H])N(C(=O)c1ccc(C)nc1)C[C@@H]2N1CCOCC1` | 7.782 | -3.004 |
| 27 | `O=C(O)C(F)(F)F.O=C(O)C(F)(F)F.[H][C@@]12CN(Cc3cc[nH]n3)C[C@]1([H])OCCN2CCOC` | 32.19 | -6.862 |
| 28 | `O=C(c1ccncc1)N1CCCN(Cc2nnc(C3CC3)o2)CC1` | 4.173 | 25.21 |
| 29 | `CNc1nc(C(=O)N2CCCCC2c2ccc(CN(C)C)cc2)cs1` (stereo not shown) | 17.73 | - |
| 30 | `CCNc1cc2c(nn1)CCN(C(=O)c1ccnc(N(C)C)c1)C2` | 6.69 | - |
| 31 | `CN(CCc1ccccc1)c1cnn(Cc2ccccn2)c(=O)c1` | 8.238 | - |
| 32 | `O=C(O)C(F)(F)F.[H][C@@]12CCN(C3CCOCC3)[C@]1([H])CCC(=O)N2Cc1csc(C)n1` | -7.677 | 13.94 |
| 33 | `CC(C)NC1CCc2c(ccc(=O)n2CC2CC2)C1.O=C(O)C(F)(F)F` (stereo not shown) | 1.317 | -2.201 |
| 34 | `O=C(O)C(F)(F)F.O=C(c1ccc(F)cc1)N1CCC2(CCN(Cc3ccccn3)C2=O)C1` (stereo not shown) | -8.572 | 10.49 |
| 35 | `CC(=O)N1CCCC2(CCN(c3nncs3)C2)C1` (stereo not shown) | 16.29 | -38.92 |
| 36 | `Cc1noc(C)c1CN(C)CC(=O)N1CCc2sccc2C1` | -3.019 | - |
| 37 | `CC(C)c1nnc2n1CCN(C(=O)c1ccc(OCC3CC3)nc1)C2` | -10.51 | -38.87 |
| 38 | `COCc1cn(C[C@H]2CC3CCN2C[C@@H]3C(=O)Nc2ccccc2)nn1` (stereo partly shown) | 7.267 | - |
| 39 | `CCN(C)[C@H]1CN(C(=O)c2cccc(N3CCS(=O)(=O)CC3)c2)C[C@@H]1O` | -1.942 | 8.629 |
| 40 | `CC(C)CC(=O)N(C)CC(=O)Nc1ccc(Br)cn1` | -0.6967 | 12.23 |
| 41 | `[H][C@]12CCC(=O)N[C@@]1(C)CCCCN2C(=O)c1cn2c(C)cccc2n1` | 9.686 | -21.21 |
| 42 | `COc1ccc(N(C(=O)Cc2ccc(C)nc2)C(C)C)cc1F` | -6.561 | -14.36 |
| 43 | `O=S(=O)(C1CC1)N1CCC2(CCCN(Cc3ccccn3)C2)CC1` | 13.6 | 5.852 |
| 44 | `CCc1noc(C)c1-c1nc(Cc2cccs2)nn1C1CCN(C)CC1` | -29.21 | 27.55 |
| 45 | `COCCCN1CC2(CCC1=O)CCN(Cc1cc(C(C)C)no1)CC2` | -6.254 | 0.2236 |
| 46 | `Cc1ccc(Oc2ncccc2CNC2CCCCC2)cn1` | 1.102 | - |
| 47 | `O=C(Cc1ccccn1)N1CCN(C(=O)c2cccc3[nH]ncc23)CC1` | -15.67 | - |
| 48 | `FC(F)(F)COc1cccc(-c2nc3c([nH]2)CCNC3)c1` | -8.978 | - |
| 49 | `N#Cc1cnc2cc(F)cc(F)c2c1NC1CCN(CC(N)=O)CC1` | 0.5506 | -19.89 |
| 50 | `CCN1CCc2c(cccc2NC(=O)N(C)C2CCSC2)C1` (stereo not shown) | -20.31 | 25.39 |
| 51 | `COCc1ncc(CN(CCN(C)C)Cc2ccc(C)s2)cn1` | -0.3763 | 19.21 |
| 52 | `CC(C)CC(=O)N1CCCC2(CC(C(=O)Nc3ccccc3)=NO2)C1` (stereo not shown) | -27.17 | - |
| 53 | `c1ccc(-c2nc(CN3CCCCC3Cn3cncn3)co2)cc1` (stereo not shown) | -3.165 | - |
| 54 | `CCn1cnnc1CNC(=O)N1CCN(c2cccc(C)c2)CC1` | -12.61 | -2.969 |
| 55 | `CCn1cc(-c2nccnc2C2CCCN(C(C)=O)C2)cn1` (stereo not shown) | -7.677 | 7.907 |
| 56 | `CC(C)c1cc(Br)ccc1NC(=O)NC(C)(CO)CO` | -2.343 | -37.92 |
| 57 | `O=C1NC2(CCN(C/C=C/c3ccccc3)CC2)CC1c1ccccc1` (stereo not shown) | 1.896 | -12.95 |
| 58 | `CCC(CO)N(Cc1ccsc1)CC1CC1` (stereo not shown) | 4.047 | - |
| 59 | `[H][C@]12CN(C(=O)c3scnc3C)CC[C@@]1(O)CCN(C(=O)N1CCCC1)C2` | -15.02 | - |
| 60 | `Cc1cc(C)c2c(OCC(=O)NC(C)C)nn(C)c2n1` | -11.27 | - |
| 61 | `Cn1ccnc1CN1CCCN(C(=O)c2ccc3cc[nH]c3c2)CC1` | -15.67 | 9.484 |
| 62 | `Cn1c(Cn2ccnc2)nnc1C1CCCN(C2CCCCC2)C1` (stereo not shown) | 4.075 | - |
| 63 | `CN1CCN(c2ccc(CO)cc2F)CC1` | 23.86 | 7.319 |
| 64 | `CC(C)CNC(=O)COc1cccc[n+]1[O-]` | 12.19 | -3.721 |
| 65 | `Cn1nc(N2CCCC(C(=O)Nc3nc4ccccc4[nH]3)C2)ccc1=O` (stereo not shown) | -0.8059 | 8.968 |
| 66 | `CCNC(=O)N1CCc2ccc(NC(=O)NCC3CC3)cc21` | 6.55 | -8.399 |
| 67 | `Nc1nccnc1CC1CCCN(Cc2c[nH]c3ccccc23)C1` (stereo not shown) | 8.787 | -11.55 |
| 68 | `Cc1ccc(CN2CCc3onc(C(=O)NC(C)C)c3C2)o1.O=C(O)C(F)(F)F` | 8.354 | 1.183 |
| 69 | `O=C1CCN(Cc2cnc3c(-c4ccccc4)cnn3c2)CCN1` | 14.72 | 15.82 |
| 70 | `COCCN1CCC2(CC1)CN(C(=O)C1CC1)c1ccc(F)cc12.O=C(O)C(F)(F)F` | -0.3236 | - |
| 71 | `COc1ccc2c(c1)C(=O)N(C)C1(CCN(C(=O)OC(C)(C)C)CC1)N2` | -19.06 | 105.8 |
| 72 | `Cc1nc[nH]c1C(=O)N1CC[C@@H](NC(=O)c2ccccn2)[C@H](O)C1` | -0.2065 | 3.339 |
| 73 | `O=C(O)C(F)(F)F.O=C(O)C(F)(F)F.[H][C@@]12CC(COc3ccccn3)C[C@@]1([H])N(CC1CCOCC1)CCO2` (stereo partly shown) | 5.272 | 5.992 |
| 74 | `CC(C)Cn1cncc1CNC(=O)c1cccc(-n2cnnc2)c1` | -10.47 | -21.05 |
| 75 | `CCCC(O)CN1CCC(=O)N(CC2CC2)Cc2cc3c(cc21)OCO3` (stereo not shown) | 15.68 | -19.45 |
| 76 | `CC(CO)NC(=O)c1ccc2[nH]/c(=N\S(C)(=O)=O)sc2c1` (stereo not shown) | -5.814 | 35.48 |
| 77 | `Cc1cc(-c2ccccc2C(=O)O)nc(C2CCCCN2C)n1` (stereo not shown) | -2.552 | -10.7 |
| 78 | `CC(C)NC(=O)C1CN(C(=O)c2ccc(F)cc2)CC12CCOCC2` (stereo not shown) | -13.97 | - |
| 79 | `CCCN(CCOC)C(=O)c1cc(Cn2c(C)nc3ccccc32)[nH]n1` | 3.684 | - |
| 80 | `Cn1cccc1-c1cc(C(=O)N2CCCC2c2nccs2)[nH]n1` (stereo not shown) | 17.31 | - |

The first 5 entries again:

{"structure": "O=C(O)C(F)(F)F.[H][C@@]12C[C@H](C(=O)Nc3cccnc3)[C@@]([H])(CN(C(=O)NC)C1)O2", "Mtb heat-shock": -3.973, "Mtb growth Cornell": 9.102}
{"structure": "O=C1N(C2CCCCC2)CCCC12CCN(S(=O)(=O)c1cccnc1)C2", "stereo": "stereo not shown", "Mtb heat-shock": -24, "Mtb growth Cornell": -44.65}
{"structure": "Cn1ccnc1CN1CCC2(CC1)CN(CC1CC1)C(=O)CO2", "Mtb heat-shock": 11.68, "Mtb growth Cornell": -11.1}
{"structure": "COc1c(CNCCNC(=O)c2ccccc2F)c(C)nn1C", "Mtb heat-shock": -9.144}
{"structure": "CC(C)CN1C(=O)C2(CCN(Cc3ccoc3)C2)c2ccccc21.O=C(O)C(F)(F)F", "stereo": "stereo not shown", "Mtb heat-shock": -0.9241}